Literature values as cited in patent US5792851A, “Human prostaglandin transporter” (Albert Einstin College of Medicine of Yeshiva University, a …, priority 1996, dated 1998).
At least one read-out could not be matched to a standard name with certainty.

System: rat PGT
Settings: reference 36, read-out: affinity constant K1/2; cited from earlier work

CCCCC[C@H](O)/C=C/[C@H]1OC(O)C[C@H](O)[C@@H]1C/C=C\CCCC(=O)O (stereo partly shown) [TxB2]
Km: 0.423 µM
